# Hit rate of the full screen: of about 31,000 sequences, about 1,400 (4.5%) were called active.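 The calls were made as follows: active = median seed-adjusted z-score above 1 or below -1; inactive = the rest.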 This is one part of the list.
# Test: Novel Modifiers of Survival Motor Neuron (SMN) Protein: Gene Identification via Genome-wide siRNA Screen;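 also: luminescence tracks full-length SMN protein made from the SMN2 reporter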
# Details: HEK293T SMN2-luciferase reporter, siRNA knockdown, 72 h; actives lie on both sides
# Outline: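 Genome-wide siRNA screen (10418 genes, 3 siRNAs each, 1 pmol per well) by reverse transfection in HEK293T cells stably carrying an SMN2-luciferase reporter; luminescence after 72 hours, normalized to negative-control siRNA, log10-transformed, MAD-scored.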
row,Sequence,median seed-adjusted z-score
1,CGAAUACAGGCAAGCUGUATT against RASL11A,inactive: -0.294
2,GGCAAAACAUUAUUGGGCATT against FIGN,inactive: -0.2
3,GCCUUUUAACAAACCCAUATT against FUT6,inactive: 0.282
4,GAGAAGGCUUUGACGAAAATT against PKD2L2,inactive: -0.0723
5,GGAGGUUUGUAGAAUAUGUTT against XYLT1,inactive: -0.274
6,CUGUGGUGAUUGCAUCAAATT against SLC20A1,inactive: -0.186
7,CCUGGAACAUCAUGAGGUATT against ADCY10,inactive: -0.573
8,CCUUCGACCAUAAUCCAGATT against KATNAL2,inactive: -0.85
9,UCCCAGGACACAUCACAUATT against RRAS,inactive: -0.102
10,GCAGAGCGGAAGUAAGGAUTT against AFMID,inactive: -0.515
11,CAGGCGAUCUUUGCGCAGATT against ONECUT2,inactive: -0.696
12,CCGAAGAAGCAAUAUCGAATT against CRKRS,active: -1.16
13,CGUGGAGGCCUAUAUCGAUTT against GTPBP3,inactive: -0.197
14,AGAUGUACAACUCACCAUATT against SLC25A28,inactive: -0.459
15,AGCACAUCUCGGUCCUCCATT against MAPK8IP2,inactive: 0.284
16,CGGCAAAAAGGUAGUCUAATT against ZNF32,inactive: 0.034
17,CGAUAAGAAUAGCAGGGAATT against SF4,inactive: 0.498
18,AGAACUCGGUGAUGAAAUATT against S1PR5,inactive: 0.301
19,CAAAGACCCUUUAUUCGAATT against BTBD10,inactive: 0.695
20,GGUAGACAAUAUUACUACATT against ARHGAP12,inactive: 0.525
21,CCAUGAGCAUAACAAGAUUTT against ZBTB47,inactive: 0
22,CCAAGAACCCGGAGAAGUATT against EXOC7,inactive: -0.231
23,CAGGAUCUGUUCAACCAAATT against VWA2,inactive: 0.584
24,GAAAUGACAGUGAAUAGUATT against STX19,inactive: 0.143
25,CACUCUAAUUUUAAGACCATT against CALR3,inactive: -0.0828
26,CACAUUUAAUGGAAACCGATT against AJAP1,inactive: 0.488
27,CAUCAUCCCUUAGUCUACATT against WNK1,inactive: -0.121
28,GGUCCAUUUUCUUCGCAAUTT against DDX55,inactive: 0.507
29,GCUCAAUCCUUUCCCUUCATT against PROM2,inactive: 0.188

# Looked up above.
# For median seed-adjusted z-score, GGUCCAUUUUCUUCGCAAUTT against DDX55 is listed with inactive: 0.507
# For median seed-adjusted z-score, UCCCAGGACACAUCACAUATT against RRAS is listed with inactive: -0.102

# — PubChem BioAssay AID1347426 (Functional Genomics Laboratory (NCATS/FGL), 2020)
